This note sets out measurements from patent publication US6451802B1, “S-oxide lipid lowering compounds” (Janssen Pharmaceutica N.V., priority 1998, dated 2002).

The nature of the data set: Plasma levels in a clinical trial on human volunteers. It counts as in vivo. The conditions noted are these: single 200 mg dose of compound A; for share of the total pharmacological activity, compounds 1, 2 and 3 together: one value for the three compounds combined. An excerpt:
Plasma levels of compounds 1, 2 and 3 and of compound A have been measured in a clinical trial on human volunteers.

On to `CCC(C)n1ncn(-c2ccc(N3CCN(c4ccc(OC[C@@H]5CO[C@@](CS(=O)(=O)c6nncn6C)(c6ccc(Cl)cc6)O5)cc4)CC3)cc2)c1=O` (relative stereo) [Compound 1, [2S-[2α,4α(S*)]]-4-[4-[4-[4-[[2-(4-chloropheny)-2-[[(4-methyl-4H-1,2,4-triazol-3-yl)sulfonyl]methyl]-1,3-dioxlan-4-yl]methoxy]phenyl]-1-piperazinyl]phenyl]-2,4-dihydro-2-(1-methylpropyl)-3H-1,2,4-triazol-3-one], for which the “share of the total pharmacological activity, compounds 1, 2 and 3 together” value is 71.4%. Still for that read-out and setting: the result for `CCC(C)n1ncn(-c2ccc(N3CCN(c4ccc(OCC5COC(C[S+]([O-])c6nncn6C)(c6ccc(Cl)cc6)O5)cc4)CC3)cc2)c1=O` (single isomer, unassigned) [Compound 2] reads 71.4%. Still for that read-out and setting: to `CCC(C)n1ncn(-c2ccc(N3CCN(c4ccc(OCC5COC(C[S+]([O-])c6nncn6C)(c6ccc(Cl)cc6)O5)cc4)CC3)cc2)c1=O` (single isomer, unassigned) [Compound 3, [2S-[2α(B),4α(S*)]]-4-[4-[4-[4-[[2-(4-chlorophenyl)-2-[[(4-methyl-4H-1,2,4-traizol-3yl]sulfinyl]methyl]-1,3-dioxolan-4-yl]methoxy]phenyl]-1-piperazinyl]Phenyl-2,4-dihydro-2-(1-methylpropyl)-3H-1,2,4-traizol-3-one] belongs 71.4%. Turning to `CC[C@@H](C)n1ncn(-c2ccc(N3CCN(c4ccc(OC[C@@H]5CO[C@@](CSc6nncn6C)(c6ccc(Cl)cc6)O5)cc4)CC3)cc2)c1=O` [compound A, (−)-[2S-[2α,4α(S*)]]-4-[4-[4-[4-[[-2-(4-chlorophenyl)-2-[[(4-methyl-4H-1,2,4-triazol-3-yl)thio]methyl]-1,3-dioxolan-4-yl]methoxy]phenyl]-1-piperazinyl]phenyl]-2,4-dihydro-2-(1-methylpropyl)-3H-1,2,4-triazol-3-one, reference compound], the “share of the total pharmacological activity” value (taking into account the pharmacological activity of each compound) came to 28.6%.
